From patent US9475914B2, “Porous polymer monoliths, processes for preparation and use thereof” (UNIVERSITY OF TASMANIA, priority 2010, dated 2016)
Like-named read-outs stand apart in the source and are kept apart here.

Columns and labels:
[1] = Simultaneous quantification of fluconazole and propranolol from monolithic sorbent, whole blood; settings: simultaneous analysis, whole rat blood
[2] = Inter-assay accuracy and precision, dried blood spots on poly(HEMA-co-EDMA) monolithic sorbent, LC-MS/MS; set-up: species or system rat; settings: for Mean Calculated Concentration: whole rat blood, n=8
[3] = not given; remark: listed apart in the source
[4] = DPS, Overall inter-assay, nominal 20 ng/mL
[5] = DPS, Overall inter-assay, nominal 70 ng/mL
[6] = DPS, Overall inter-assay, nominal 500 ng/mL
[7] = DPS, Overall inter-assay, nominal 800 ng/mL

CC(C)NCC(O)COc1cccc2ccccc12 (centres unmarked) [Propranolol]
Accuracy ([1]; nominal 5 ng/mL): 166%
Mean Calculated Conc. ([1]; nominal 5 ng/mL): 8.30 ng/mL
Accuracy ([1]; nominal 20 ng/mL): 89%
Mean Calculated Conc. ([1]; nominal 20 ng/mL): 17.80 ng/mL
Mean Calculated Conc. ([1]; nominal 70 ng/mL): 78.78 ng/mL
Mean Calculated Conc. ([1]; nominal 500 ng/mL): 535.00 ng/mL

OC(Cn1cncn1)(Cn1cncn1)c1ccc(F)cc1F [Fluconazole]
Mean Calculated Concentration ([2]; nominal 5 ng/mL): 5.69 ng/mL
Mean Calculated Concentration ([2]; nominal 20 ng/mL): 21.23 ng/mL
Mean Calculated Concentration ([2]; nominal 70 ng/mL): 65.85 ng/mL
Mean Calculated Concentration ([2]; nominal 500 ng/mL): 492.00 ng/mL
lower limit of quantification (LLOQ) ([2]; whole blood): 5 ng/mL
Accuracy ([1]; nominal 5 ng/mL): 123%
Mean Calculated Conc. ([1]; nominal 5 ng/mL): 6.16 ng/mL
Accuracy ([1]; nominal 20 ng/mL): 93%
Mean Calculated Conc. ([1]; nominal 20 ng/mL): 18.60 ng/mL
Accuracy ([1]; nominal 70 ng/mL): 119%
Mean Calculated Conc. ([1]; nominal 70 ng/mL): 83.38 ng/mL
Accuracy ([1]; nominal 500 ng/mL): 100%
Mean Calculated Conc. ([1]; nominal 500 ng/mL): 500.25 ng/mL
Precision (DPS, Batch 1, nominal 20 ng/mL): 3
Accuracy (DPS, Batch 1, nominal 20 ng/mL, deviation from nominal): 1
Precision (DPS, Batch 1, nominal 70 ng/mL): 5
Accuracy (DPS, Batch 1, nominal 70 ng/mL, deviation from nominal): 1
Precision (DPS, Batch 1, nominal 500 ng/mL): 5
Accuracy (DPS, Batch 1, nominal 500 ng/mL, deviation from nominal): 1
Precision (DPS, Batch 1, nominal 800 ng/mL): 3
Accuracy (DPS, Batch 1, nominal 800 ng/mL, deviation from nominal): 1
Average concentration (DPS, Batch 1 intra-assay, nominal 20 ng/mL, n=6): 20.12 ng/mL
Average concentration (DPS, Batch 1 intra-assay, nominal 70 ng/mL, n=6): 69.35 ng/mL
Average concentration (DPS, Batch 1 intra-assay, nominal 500 ng/mL, n=6): 496.17 ng/mL
Average concentration (DPS, Batch 1 intra-assay, nominal 800 ng/mL, n=6): 805.83 ng/mL
Average concentration [4]: 20.11 ng/mL
Precision [4]: 3
Accuracy (DPS, Overall inter-assay, nominal 20 ng/mL, deviation from nominal): 1
Average concentration [5]: 68.2 ng/mL
Precision [5]: 5
Accuracy (DPS, Overall inter-assay, nominal 70 ng/mL, deviation from nominal): 3
Average concentration [6]: 495.50 ng/mL
Precision [6]: 4
Accuracy (DPS, Overall inter-assay, nominal 500 ng/mL, deviation from nominal): 1
Average concentration [7]: 810.833 ng/mL
Precision [7]: 2
Accuracy (DPS, Overall inter-assay, nominal 800 ng/mL, deviation from nominal): 1
Accuracy (dilution above HLQ, plasma): 32%
Precision (dilution above HLQ, plasma): 7%
Average concentration (dilution above HLQ, plasma spiked 20000 ng/mL, diluted, n=6): 1360
Accuracy ([3]; DBS, Batch 1, nominal 20 ng/mL, deviation from nominal): 13
Accuracy ([3]; DBS, Batch 1, nominal 70 ng/mL, deviation from nominal): 5
Accuracy ([3]; DBS, Batch 1, nominal 500 ng/mL, deviation from nominal): 2
Accuracy ([3]; DBS, Batch 1, nominal 800 ng/mL, deviation from nominal): 10
Average concentration ([3]; DBS, Batch 1 intra-assay, nominal 20 ng/mL, n=6): 17.35 ng/mL
Average concentration ([3]; DBS, Batch 1 intra-assay, nominal 70 ng/mL, n=6): 66.33 ng/mL
Average concentration ([3]; DBS, Batch 1 intra-assay, nominal 500 ng/mL, n=6): 488.67 ng/mL
Average concentration ([3]; DBS, Batch 1 intra-assay, nominal 800 ng/mL, n=6): 724.00 ng/mL
Accuracy ([3]; DBS, Batch 2, nominal 20 ng/mL, deviation from nominal): 2
Accuracy ([3]; DBS, Batch 2, nominal 70 ng/mL, deviation from nominal): 5
Accuracy ([3]; DBS, Batch 2, nominal 500 ng/mL, deviation from nominal): 6
Accuracy ([3]; DBS, Batch 2, nominal 800 ng/mL, deviation from nominal): 10
Average concentration ([3]; DBS, Batch 2 intra-assay, nominal 20 ng/mL, n=6): 20.32 ng/mL
Average concentration ([3]; DBS, Batch 2 intra-assay, nominal 70 ng/mL, n=6): 66.33 ng/mL
Average concentration ([3]; DBS, Batch 2 intra-assay, nominal 500 ng/mL, n=6): 530.00 ng/mL
Average concentration ([3]; DBS, Batch 2 intra-assay, nominal 800 ng/mL, n=6): 878.80 ng/mL
Accuracy ([3]; DBS, Batch 3, nominal 20 ng/mL, deviation from nominal): 9
Accuracy ([3]; DBS, Batch 3, nominal 70 ng/mL, deviation from nominal): 2
Accuracy ([3]; DBS, Batch 3, nominal 500 ng/mL, deviation from nominal): 7
Accuracy ([3]; DBS, Batch 3, nominal 800 ng/mL, deviation from nominal): 2
Average concentration ([3]; DBS, Batch 3 intra-assay, nominal 20 ng/mL, n=6): 18.25 ng/mL
Average concentration ([3]; DBS, Batch 3 intra-assay, nominal 70 ng/mL, n=6): 71.12 ng/mL
Average concentration ([3]; DBS, Batch 3 intra-assay, nominal 500 ng/mL, n=6): 465.60 ng/mL
Average concentration ([3]; DBS, Batch 3 intra-assay, nominal 800 ng/mL, n=6): 787.83 ng/mL
Average concentration ([3]; DBS, Overall inter-assay, nominal 20 ng/mL): 18.25 ng/mL
Accuracy ([3]; DBS, Overall inter-assay, nominal 20 ng/mL, deviation from nominal): 7
Average concentration ([3]; DBS, Overall inter-assay, nominal 70 ng/mL): 71.12 ng/mL
Accuracy ([3]; DBS, Overall inter-assay, nominal 70 ng/mL, deviation from nominal): 3
Average concentration ([3]; DBS, Overall inter-assay, nominal 500 ng/mL): 465.60 ng/mL
Accuracy ([3]; DBS, Overall inter-assay, nominal 500 ng/mL, deviation from nominal): 6
Average concentration ([3]; DBS, Overall inter-assay, nominal 800 ng/mL): 803.21 ng/mL
Accuracy ([3]; DBS, Overall inter-assay, nominal 800 ng/mL, deviation from nominal): 0
Accuracy ([3]; dilution above HLQ, blood): 26%
Average concentration ([3]; dilution above HLQ, blood spiked 20000 ng/mL, diluted, n=3): 1483 ng/mL
